Measured values published in the supplement of paper PMC3334620.
Over roughly 33,000 sequences, “E-score (-0.5 to 0.5)” has its median near -0.0059; the highest 2% begin near 0.26. This is one part of the list.

Target: T1, Cin5 (UniProt P40917)
T1 sequence: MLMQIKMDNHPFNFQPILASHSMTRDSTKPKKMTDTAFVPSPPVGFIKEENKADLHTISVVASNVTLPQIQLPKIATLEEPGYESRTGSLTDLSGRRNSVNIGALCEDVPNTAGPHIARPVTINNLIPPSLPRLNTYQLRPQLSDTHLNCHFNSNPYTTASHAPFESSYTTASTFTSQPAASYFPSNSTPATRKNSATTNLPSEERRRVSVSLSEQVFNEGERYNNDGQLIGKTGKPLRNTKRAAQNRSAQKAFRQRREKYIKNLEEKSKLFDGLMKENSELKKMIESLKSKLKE
Assay: PBM E-score (8-mer binding enrichment) (E-score (-0.5 to 0.5)); higher = stronger / more preferred TF binding
Conditions: protein concentration: 100 nM; construct: GST-full length
How it was run: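 Detection of bound protein used fluorescent anti-GST, with scans normalised by masliner. The proteins were GST-tagged yeast transcription factors applied at about 100-200 nM to universal all-10-mer Agilent arrays made double-stranded by primer extension. Each ungapped eight-base word, pooled with its reverse complement, was scored with an E-score from the Universal PBM Analysis Suite.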

Sequence	PBM E-score
AGACACCA	-0.0438
ACCCCGCA	0.0374
AGAGTACA	-0.0533
CCTGTTGA	-0.106
AGTTGTAT	0.122
ATTACGGG	0.103
ATTGGCAC	-0.00353
CTACGGAC	-0.213
GATACGGA	0.0896
GAGCGTTA	0.0107
GCAAGCCA	-0.21
GAATATGC	-0.00758
TAAGATCA	0.0649
AGATCGCT	-0.0295
ATTCAAAT	0.139
CTCGCTAA	0.0174
AGGCAAAT	0.0818
AAAAACAG	0.0389
TCGACCCA	0.025
ATGCATGC	0.0147
AACGGAAC	0.241
GACTTGCA	0.035
AGCAATAA	0.103
ACAAACTG	-0.0242
AGGCGAGG	-0.184

Sequence	PBM E-score
CGGGAAGA	0.203
ATGTTATC	0.155
AGTGCTGG	0.00095
GCCAGACA	-0.00597
GGTGTCAC	0.0176
ATACCGGG	0.0701
CTACTGAC	-0.0455
AGAACTAT	0.124
ACCCGAGC	-0.0675
TGTATCAA	0.167
ATTCTCTG	-0.0828
GAGCTATA	-0.132
CGCCTCCG	-0.252
AGTTATCA	0.048
ACACAGAT	0.106
CCCAGCGA	-0.127
GGCCAACA	-0.0942
CAGCAATG	-0.154
AGACGGTG	-0.241
CAAGACAG	-0.079
ACGAGTTC	0.128
CTACCTTC	-0.0653
CATGATTA	0.321
AACGCCAC	-0.137
CAAAGACG	-0.0507

Sequence	PBM E-score
ACTACCCG	-0.0362
AAAGCAGC	0.0692
CTCATCGA	0.0271
GCCGCCGC	-0.245
ATGCCGAC	0.0385
CTACTAAC	0.147
ATGGGGAC	-0.0188
ACCTCTCA	-0.0138
CCATAGAG	-0.128
GAGACCTA	-0.0702
GCCGTTCA	-0.08
ACCACAAT	-0.00898
GAACGCGC	-0.0696
GCGACGAC	-0.116
AGAGTGGA	0.0368
CAATGCCC	-0.138
CACCGATC	0.0284
ACTCACAA	0.118
AGGTGAAA	0.118
AATTCATG	0.154
CCACAAGG	-0.137
GCGGATCC	-0.0308
CCACTAGC	-0.0422
GCCCGTAA	0.0467
AGATCTAA	-0.054

Sequence	PBM E-score
AGAGTGCG	-0.0455
GAAGTTGA	0.0202
AAGGGTAT	0.157
CGACCGAA	-0.0336
CAGAGAAG	0.0142
GGAATAGA	0.223
AGGCTGAC	0.0576
CCATAATC	0.245
AAGCTAGC	-0.0698
ATGCCGTG	-0.0333
ATGAACAG	-0.0835
CAGGCGTC	-0.187
ACTGACAG	0.122
CTCCTCCA	-0.199
AGAGGAAC	-0.0952
ATGAATAG	0.148
AGCGTTAG	-0.0177
CCCTTAGG	-0.161
GTGAAAAA	0.119
CAATCGAC	-0.0333
ACGAGAGT	0.0806
GTTATTTA	0.194
AGCTTAGC	0.0428
AAAGCTGA	-0.056
AGGTTTCC	-0.0781

Another view of some results above:

| Sequence | PBM E-score |
| --- | --- |
| AGGCAAAT | 0.0818 |
| AAAAACAG | 0.0389 |
| TCGACCCA | 0.025 |
| ATGCATGC | 0.0147 |
| AACGGAAC | 0.241 |
| GACTTGCA | 0.035 |
| AGCAATAA | 0.103 |
| ACAAACTG | -0.0242 |
| AGGCGAGG | -0.184 |
| CGGGAAGA | 0.203 |
| ATGTTATC | 0.155 |
| AGTGCTGG | 0.00095 |
| GCCAGACA | -0.00597 |
| GGTGTCAC | 0.0176 |
| ATACCGGG | 0.0701 |
| CTACTGAC | -0.0455 |
| AGAACTAT | 0.124 |
| ACCCGAGC | -0.0675 |
| TGTATCAA | 0.167 |
| ATTCTCTG | -0.0828 |
| GAGCTATA | -0.132 |
| CGCCTCCG | -0.252 |
| AGTTATCA | 0.048 |
| ACACAGAT | 0.106 |
| CCCAGCGA | -0.127 |
| GGCCAACA | -0.0942 |
| CAGCAATG | -0.154 |
| AGACGGTG | -0.241 |
| CAAGACAG | -0.079 |
| ACGAGTTC | 0.128 |
| CTACCTTC | -0.0653 |
| CATGATTA | 0.321 |
| AACGCCAC | -0.137 |
| CAAAGACG | -0.0507 |
| ACTACCCG | -0.0362 |
| AAAGCAGC | 0.0692 |
| CTCATCGA | 0.0271 |
| GCCGCCGC | -0.245 |
| ATGCCGAC | 0.0385 |
| CTACTAAC | 0.147 |
| ATGGGGAC | -0.0188 |
| ACCTCTCA | -0.0138 |
| CCATAGAG | -0.128 |
| GAGACCTA | -0.0702 |
| GCCGTTCA | -0.08 |
| ACCACAAT | -0.00898 |
| GAACGCGC | -0.0696 |
| GCGACGAC | -0.116 |
| AGAGTGGA | 0.0368 |
| CAATGCCC | -0.138 |
| CACCGATC | 0.0284 |
| ACTCACAA | 0.118 |
| AGGTGAAA | 0.118 |
| AATTCATG | 0.154 |
| CCACAAGG | -0.137 |
| GCGGATCC | -0.0308 |
| CCACTAGC | -0.0422 |
| GCCCGTAA | 0.0467 |
| AGATCTAA | -0.054 |
| AGAGTGCG | -0.0455 |
| GAAGTTGA | 0.0202 |
| AAGGGTAT | 0.157 |
| CGACCGAA | -0.0336 |
| CAGAGAAG | 0.0142 |
| GGAATAGA | 0.223 |
| AGGCTGAC | 0.0576 |
| CCATAATC | 0.245 |
| AAGCTAGC | -0.0698 |
| ATGCCGTG | -0.0333 |
| ATGAACAG | -0.0835 |
| CAGGCGTC | -0.187 |
| ACTGACAG | 0.122 |
| CTCCTCCA | -0.199 |
| AGAGGAAC | -0.0952 |
| ATGAATAG | 0.148 |
| AGCGTTAG | -0.0177 |
| CCCTTAGG | -0.161 |
| GTGAAAAA | 0.119 |
| CAATCGAC | -0.0333 |
| ACGAGAGT | 0.0806 |
| GTTATTTA | 0.194 |
| AGCTTAGC | 0.0428 |

Continuation:

Sequence	PBM E-score
CCTCAAAC	-0.0628
CCACCCCG	-0.0979
ATTCTAAG	-0.00535
AATGTCTC	-0.00561
AACAATGA	0.126
CCCTCCCC	-0.0114
GAAGAGGA	-0.199
ACTCTTCT	0.077
CTAGCTCC	-0.139
AGGTCCGA	0.0304
CCCGCGCC	-0.13
ACTTCCAG	-0.0951
AGTAGCCG	0.0345
AATTAGCG	0.215
AGAACGTA	0.116
TCATTGCA	0.00338
AGAGTAAT	0.152
TCTCAACA	0.0118
GAACTCGC	-0.0322
AGGGACAG	-0.22
CGCCCAAC	-0.0562
CAATGCGA	0.0397
ACCGCTGG	-0.174
CTGCGGTA	-0.0928
ACCATTTA	0.0867

Sequence	PBM E-score
CCAATGCG	-0.106
GTTGAAGA	0.065
GAATATTA	0.274
GGGCGTAC	-0.0142
CCCAGCTA	-0.132
GCTCATCC	0.0554
AAACCGCC	0.0261
CGCACGTA	0.0256
ACGCCCCC	-0.303
GACCAAGA	0.0486
CAGACGTA	-0.12
CAGGGATA	-0.0677
TTCACAAA	-0.00255
GAGATTGA	0.0276
ATGCCGCA	0.0887
ACCTGGAA	0.167
CATTCCCA	0.0801
AGACGACA	0.0143
ACCATAAG	0.00751
ATATCTGA	0.21
CGTGGAGA	-0.111
ACGATTCG	0.0449
GGCTTAAC	0.0634
ATGAGCGG	0.0526
GAGGCAAC	-0.0956

Sequence	PBM E-score
AAGGGATG	-0.0396
TCCACCGA	-0.0644
CGCTGCTA	-0.141
ACGTCCAA	0.0138
GTTGGTAA	0.121
GCTTATAC	0.183
TCTGGAAA	0.07
AGAGAGTA	-0.0187
CCCAGGTA	-0.224
CAATGGGC	-0.0862
CCCCTCGA	0.0859
CGCGATAG	0.111
GAGAACTC	-0.0556
AAACGCAC	0.0202
ATCGTACG	0.154
AACAGCCC	-0.141
AGTGCCTC	-0.355
AATAGCCA	0.119
AATTAATC	0.164
GTTGCAAA	0.119
CTCCGCGC	-0.0937
CTGCATGC	0.0678
AGGGTCTC	-0.111
CCGACTAA	-0.0363
TCTCGTCA	0.122

Sequence	PBM E-score
ATCTATGC	0.151
GATCTCAC	0.015
AAGATCAA	0.19
GACACTAA	0.115
CAACGGCC	-0.0384
AAGTGTAA	0.0551
ACTCACTG	0.00589
AACAACAA	0.195
AAACGCGC	0.0535
CGTGTGCA	-0.0136
CAAGTGGG	-0.0937
CACCCGTC	0.0273
ACAGGTAG	0.0119
AGCAAGGA	-0.0527
AGCCATTG	0.113
AAAGTCAT	0.118
AATGTGAC	0.0716
GAGCGGAA	0.161
AGATCCAC	0.141
AGGACTAA	0.00777
CACGAGGG	-0.264
AGAATAGC	0.061
TGGAGCAA	0.0281
ATCCTCGG	-0.0226
AGTCGTAC	-0.0879

Sequence	PBM E-score
CCCAATAA	0.106
ACGAGGGG	-0.299
GCGTTGAC	-0.111
ATCAGACG	0.0547
ACTGCGGG	-0.0914
AAATGACT	-0.0314
GCAGGTTA	-0.124
TACTGCTA	0.139
AAACACAT	0.0346
ATCTGCTC	-0.0403
AGGGCCCT	-0.102
ATCCGGGG	0.0968
TAAAACTA	0.2
AATTAACA	0.191
TGGCGACA	-0.0366
CTATACGC	0.0876
CTGCTTCC	-0.178
AGAAGTTC	-0.146
GTCGAAAA	-0.00795
ATAATGGC	0.195
CAGTCCCA	-0.148
AATGCTCC	-0.064
CAACCTAG	-0.133
AGCCTGGG	-0.2
AAAGCATT	0.0405

Sequence	PBM E-score
CCATGCAA	0.132
ACTGGCTG	-0.0522
GCGACTAC	-0.0223
ACAACTCC	0.0848
AACCCAGT	-0.0374
GGGGGACC	-0.391
CGATCTAA	0.178
AAGGTGTA	-0.0871
CACTGCCA	-0.0785
CAAATCCG	0.0844
CAATGGTC	0.0916
AAGGGAAG	-0.0754
AGAATACG	-0.0156
CTTGGTCC	-0.149
CACAACAG	-0.185
GAACACAC	-0.041
AACCGGGA	-0.146
CAGCAGGA	-0.0169
AAAGGTTC	-0.023
TCAGTGCA	-0.0765
CCGGCAGA	-0.212
CGGCGATC	-0.0399
GCGCCGGA	-0.117
GCTTAACA	0.0285
ATCGAGCC	-0.104

Sequence	PBM E-score
CGGCCCCA	-0.255
CTCACATA	0.164
TAGTGGAA	0.0595
TCGGTGCA	-0.0208
CATGCATA	0.0554
TGAAGGCA	0.0551
GTGCAGAA	-0.118
AGATTAGC	0.028
AGAGACAG	-0.0862
AACTCCAC	0.00478
AAGGTCAA	-0.088
GCAGAGCA	-0.217
CTTGCGAC	-0.128
GAGTCCTA	-0.254
ATAGGGTA	0.126
CTAGGATC	-0.139
ATTTGGAA	0.125
TAATTCCA	0.102
GACCAGGC	-0.142
ACGCTTAT	0.101
CAATAGTA	0.194
AAGTACTC	0.0253
AAATCCAG	0.13
GTTCGTAA	0.153
GTTGTCCA	0.143

Sequence	PBM E-score
AGAATGAT	0.182
CTTTAGTA	-0.00776
AGCTGTGA	0.0708
CCAACCGC	0.0876
AAATCCCA	0.0247
GGTGGCTA	-0.0602
TCCGCCCA	-0.00394
TAGGTATA	0.167
AAATATGC	0.0156
CCGTATTA	0.134
GAATGGAC	-0.0316
TTCTACAA	0.0644
GTTGCAGA	0.00874
TCCCTTAA	-0.186
AAGATTAT	0.239
CCGGGTCC	-0.303
TAATACAA	0.232
GATTATTA	0.316
AATTTAGA	0.0855
CCGCTGTA	0.0177
CGCCCACG	-0.11
CAATCGCA	0.13
ACGACTCA	-0.118
ATGGGCCG	-0.137
TTAATTAA	0.183

Sequence	PBM E-score
GTCACTTA	0.113
GACGCATC	0.00795
CGCCTAGA	-0.1
CATAGGCA	-0.0176
TCCCCGAA	-0.0728
GGTCCTAA	-0.143
GGGAAGTA	0.0697
ATGGTGTC	0.0539
ACGATTCC	-0.00185
CAATGGGA	-0.0693
GTTATTGA	0.0972
ATGGTATC	0.188
ATTCGTCA	0.127
ACCCTGAC	-0.0537
GGATCTGA	-0.0967
CCTTAGGC	-0.335
AGTGTGCG	-0.0425
AGTATCTA	0.242
GTTCACTA	-0.0359
CAATTGCG	0.00989
CCCGTCGG	-0.122
AATGTTCC	0.033
AGGTCATC	0.101
GCCCCAAC	0.228
AGTCCGTA	-0.126

Sequence	PBM E-score
GAAGAGCC	-0.147
CCCCTATC	-0.111
ACCGCACG	-0.141
ACTCGCAC	-0.0154
ATATAGTG	0.235
ACATAGCG	-0.0772
CTTTGCAC	-0.00532
CAGGAGAC	-0.0701
GCATCCTA	-0.0606
ACAGCCTA	0.0697
ATCAACTG	0.128
AAGAGGTC	0.00337
GCCGTTAA	-0.0272
ATCCCAGG	-0.174
CCAGTTAC	-0.186
TGGCAAAA	0.123
CCTAAAAA	0.0181
ACCAGACT	-0.096
ACAATTAT	0.205
